Where two headings read alike, the source gives them in different places.
Assays:
[1] = target: T1, α1-acid glycoprotein (AGP) (Homo sapiens, UniProt P02763); test: biochemical
[2] = target: T1, α1-acid glycoprotein (AGP); test: in vitro
Description: This system features the proteins of interest covalently bound to the surface of silica beads through the use of proprietary attachment chemistry. The surface was designed to minimize interactions with drug molecules, thus preventing non-specific binding of test substances.
AGP or HSA protein-coated beads (Sovicell, Leipzig, Germany; distributed by ADMEcell, Emeryville, CA) were thawed at room temperature for two hours. Stock solutions of each compound were diluted to a final sample concentration of 20 µM or 50 µM. Samples (45 µL) were added to 405 µL of premixed solutions of buffer and AGP or HSA coated beads and mixed thoroughly to keep the beads suspended in solution to allow for the compounds to bind to the protein coated beads, [30]. After centrifuging, 100 µL of supernatant were transferred to a 96-well plate and analyzed on an Agilent 1100 HPLC coupled to a diode array detector.
After equilibrating the column with 50 mM ammonium acetate buffer/acetonitrile (99%/1%) at a flow rate of 500 µL/min for ∼2 minutes, compounds were detected by initiating a five minute gradient to 100% acetonitrile, held for 3 minutes, followed by a one minute gradient to 1% acetonitrile, where the composition was then maintained for the final three minutes, for a total run time of 12 minutes. […] Data were evaluated using the Sovicell-supplied Microsoft Excel (Redmond, WA) spreadsheets, [44].

Amino acid sequences for entries named in this document (tags omitted). Residues count along the entry.
UniProt P02763, 19-201: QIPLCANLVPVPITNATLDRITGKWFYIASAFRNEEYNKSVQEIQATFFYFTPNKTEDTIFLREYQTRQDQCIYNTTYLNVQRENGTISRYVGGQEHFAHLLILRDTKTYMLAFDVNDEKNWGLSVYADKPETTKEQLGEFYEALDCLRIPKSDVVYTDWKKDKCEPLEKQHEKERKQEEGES

[3] = target: T1, α1-acid glycoprotein (AGP); test: biochemical; remark: listed apart in the source

COc1ccc2cc([C@H](C)C(=O)O)ccc2c1 [Naproxen, naproxen]
IC50 [1]: > 1140 µM | Kd at 2 min, 50 µM [2]: 688 µM | IC50 [3]: > 1000 µM
